Experimental findings from patent US11406709B2, “Therapeutic and research application of PDCL3” (TRUSTEES OF BOSTON UNIVERSITY, priority 2014, dated 2022) are described below.

The subject of the data set is HEK-293 cells. Kind of data set: Cycloheximide (CHX)-chase assay, half-life of PDCL3. The data set is classed as cell-based, human. The conditions noted are these: CHX 20 μg/ml.

B1: PDCL3: 239-amino acid human phosducin-like protein 3, SEQ ID NO: 1; expressed from cDNA in cells (protein, listed as Homo sapiens)
chain: MQDPNADTEWNDILRKKGILPPKESLKELEEEAEEEQRILQQSVVKTYEDMTLEELEDHEDEFNEEDERAIEMYRRRRLAEWKATKLKNKFGEVLEISGKDYVQEVTKAGEGLWVILHLYKQGIPLCALINQHLSGLARKFPDVKFIKAISTTCIPNYPDRNLPTIFVYLEGDIKAQFIGPLVFGGMNLTRDELEWKLSESGAIMTDLEENPKKPIEDVLLSSVRRSVLMKRDSDSEGD
modifications: Myc tag in some forms
notes: expressed from cDNA in cells
For the molecule B1, the “half-life of PDCL3 after inhibition of its translation by CHX” value is “about 30 minutes”.

B2: acetylation resistant HA-tagged PDCL3: Mutant PDCL3 generated by removing the first methionine and adding HA tag (protein)
chain: QDPNADTEWNDILRKKGILPPKESLKELEEEAEEEQRILQQSVVKTYEDMTLEELEDHEDEFNEEDERAIEMYRRRRLAEWKATKLKNKFGEVLEISGKDYVQEVTKAGEGLWVILHLYKQGIPLCALINQHLSGLARKFPDVKFIKAISTTCIPNYPDRNLPTIFVYLEGDIKAQFIGPLVFGGMNLTRDELEWKLSESGAIMTDLEENPKKPIEDVLLSSVRRSVLMKRDSDSEGD
modifications: left off: small tags and cut ends
Turning to B2, the “half-life of PDCL3 after inhibition of its translation by CHX” value was “quite stable up to 60 minutes”.
